Measurements reported in PubChem BioAssay AID1224830 (NIAID, 2016).

- Assay: 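Host factors that control LPS-induced TNF expression in human macrophages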 (primary screen)
- Cells: human THP-1 monocytic leukaemia cells, TNF dual-luciferase reporter clone, PMA-differentiated to macrophage-like cells
- Reagents: siRNA pool against human genes, 50 nM
- Timing: LPS for 4 h, given about 3 days after siRNA transfection
- Challenge: bacterial LPS (TLR4 ligand), 10 ng/ml
- Measurement: 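Ratio of firefly to renilla light, scaled to the plate median and expressed as a robust z-score per replicate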
- Reading the numbers: TNF reporter robust z-score: higher = stronger TNF reporter response to LPS
- Active means: 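a well is active when its z-score exceeds 2.8 or falls below -1.5; control wells carry no call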
This is an unselected part of about 18,000 deposited reagents. Over the whole deposit, about 2,900 (16%) were called active. 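Calls are made per well; low scores hint the gene aids the LPS response, high scores that it dampens it.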 Entries without a mark were called inactive. Reagents against one gene are numbered here. Repeated entries: four replicate wells of each siRNA pool.

gene,reagent no.,TNF reporter robust z-score
GHRH,1,-2.04 (active)
GHRH,1,-1.67 (active)
GHRH,1,-1.82 (active)
GHRH,1,-1.88 (active)
PTPA,1,1.14
PTPA,1,1.27
PTPA,1,0.93
PTPA,1,0.3
OTOA,1,-0.32
OTOA,1,-0.15
OTOA,1,1.46
OTOA,1,1.54
MBD1,1,0.42
MBD1,1,2.83 (active)
MBD1,1,-0.61
MBD1,1,-0.06
IL22,1,-1.15
IL22,1,-0.75
IL22,1,-1.11
IL22,1,-0.86
KCNRG,1,-0.25
KCNRG,1,1.72
KCNRG,1,-0.31
KCNRG,1,1.35
GPHN,1,-0.96
GPHN,1,0.49
GPHN,1,2.28
GPHN,1,1.76
MARCKS,1,0.58
MARCKS,1,1.44
MARCKS,1,0.28
MARCKS,1,-0.17
ERCC6L2,1,-0.64
ERCC6L2,1,-0.06
ERCC6L2,1,-0.49
ERCC6L2,1,-0.12
ERCC6L2,2,-0.28
ERCC6L2,2,-0.87
ERCC6L2,2,0.02
ERCC6L2,2,0.68
SLC22A7,1,-0.5
SLC22A7,1,-0.41
SLC22A7,1,-0.31
SLC22A7,1,-0.34
ABTB2,1,-0.67
ABTB2,1,-0.66
ABTB2,1,-0.32
ABTB2,1,-0.17
MPP7,1,1.34
MPP7,1,2.24
MPP7,1,1.05
MPP7,1,1.19
MYO19,1,0.68
MYO19,1,-0.22
MYO19,1,1.81
MYO19,1,-0.1
LDHB,1,-1.08
LDHB,1,-1.03
LDHB,1,-0.89
LDHB,1,-0.04
FOXD4L6,1,0.64
FOXD4L6,1,2.05
FOXD4L6,1,0.05
FOXD4L6,1,0.01
NSRP1,1,-1.76 (active)
NSRP1,1,-1.27
NSRP1,1,-1.38
NSRP1,1,-0.61
ENG,1,0.47
ENG,1,-0.16
ENG,1,0.37
ENG,1,0.44

Hits, among the entries above:
gene,reagent no.,TNF reporter robust z-score
GHRH,1,-2.04 (active)
GHRH,1,-1.67 (active)
GHRH,1,-1.82 (active)
GHRH,1,-1.88 (active)
MBD1,1,2.83 (active)
NSRP1,1,-1.76 (active)

Additional entries follow:
gene,reagent no.,TNF reporter robust z-score
AMHR2,1,-0.93
AMHR2,1,-0.76
AMHR2,1,-0.52
AMHR2,1,-0.06
FASN,1,-0.5
FASN,1,-0.1
FASN,1,0.12
FASN,1,-0.23
RCBTB2,1,-0.69
RCBTB2,1,0.25
RCBTB2,1,-1.02
RCBTB2,1,-0.71
RBP3,1,-1.3
RBP3,1,0.34
RBP3,1,-0.85
RBP3,1,-1.23
TIMM10,1,-1.12
TIMM10,1,-0.78
TIMM10,1,-1
TIMM10,1,-1.05
OR2A4,1,0.14
OR2A4,1,0.81
OR2A4,1,0.79
OR2A4,1,-0.2
NNT,1,1.09
NNT,1,0.08
NNT,1,0.26
NNT,1,1.32
E2F8,1,1.36
E2F8,1,2.82 (active)
E2F8,1,3.97 (active)
E2F8,1,3.07 (active)
PRSS35,1,-0.93
PRSS35,1,-0.35
PRSS35,1,-0.67
PRSS35,1,-0.77
OR5H14,1,0.07
OR5H14,1,1.89
OR5H14,1,-0.55
OR5H14,1,-0.81
